Measurements taken from US5693620A, “Plasmalopsychosines and plasmalocerebrosides” (Oncomembrane, Inc., priority 1994, dated 1997).
At least one compound was matched to its structure with a doubt left.

How the values were obtained:
neuroblastoma cells = assay: Neuritogenic activity in neuroblastoma cell lines; format: cell-based, mouse and human
PKC = assay: Inhibition of PKC; format: biochemical

CCCCCCCCCCCCC/C=C/[C@@H](O)[C@@H](N)CO[C@@H]1O[C@H](CO)[C@H](O)[C@H](O)[C@H]1O [psychosine, galactosylsphingosine] was tested. Which “neuritogenic / neurogenic activity (in words)” value (neuroblastoma cells) did it give?
The value was “No neuritogenesis occurred”.

And the “inhibition of PKC” value (PKC)?
The value was “strong inhibitory effect”.
